{"sequences": {"note": "Protein sequences, listed by entry. Tags and fused reporters are not part of them.", "UniProt Q9NQB0": "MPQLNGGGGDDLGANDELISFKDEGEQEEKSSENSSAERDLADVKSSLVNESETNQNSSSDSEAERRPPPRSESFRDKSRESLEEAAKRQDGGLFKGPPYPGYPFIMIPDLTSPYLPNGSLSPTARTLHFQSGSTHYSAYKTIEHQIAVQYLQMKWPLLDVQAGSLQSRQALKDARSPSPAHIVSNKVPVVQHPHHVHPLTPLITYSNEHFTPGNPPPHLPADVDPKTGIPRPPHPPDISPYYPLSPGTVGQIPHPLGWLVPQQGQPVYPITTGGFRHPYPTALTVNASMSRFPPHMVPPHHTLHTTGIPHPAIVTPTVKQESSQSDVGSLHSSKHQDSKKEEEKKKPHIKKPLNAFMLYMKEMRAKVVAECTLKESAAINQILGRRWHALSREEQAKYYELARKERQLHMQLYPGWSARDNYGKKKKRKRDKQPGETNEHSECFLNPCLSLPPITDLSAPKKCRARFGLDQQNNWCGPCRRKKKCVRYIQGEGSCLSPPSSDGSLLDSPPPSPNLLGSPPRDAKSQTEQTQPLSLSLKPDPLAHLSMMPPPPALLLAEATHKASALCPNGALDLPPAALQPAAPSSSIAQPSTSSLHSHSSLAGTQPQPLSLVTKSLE", "UniProt Q8TEK3": "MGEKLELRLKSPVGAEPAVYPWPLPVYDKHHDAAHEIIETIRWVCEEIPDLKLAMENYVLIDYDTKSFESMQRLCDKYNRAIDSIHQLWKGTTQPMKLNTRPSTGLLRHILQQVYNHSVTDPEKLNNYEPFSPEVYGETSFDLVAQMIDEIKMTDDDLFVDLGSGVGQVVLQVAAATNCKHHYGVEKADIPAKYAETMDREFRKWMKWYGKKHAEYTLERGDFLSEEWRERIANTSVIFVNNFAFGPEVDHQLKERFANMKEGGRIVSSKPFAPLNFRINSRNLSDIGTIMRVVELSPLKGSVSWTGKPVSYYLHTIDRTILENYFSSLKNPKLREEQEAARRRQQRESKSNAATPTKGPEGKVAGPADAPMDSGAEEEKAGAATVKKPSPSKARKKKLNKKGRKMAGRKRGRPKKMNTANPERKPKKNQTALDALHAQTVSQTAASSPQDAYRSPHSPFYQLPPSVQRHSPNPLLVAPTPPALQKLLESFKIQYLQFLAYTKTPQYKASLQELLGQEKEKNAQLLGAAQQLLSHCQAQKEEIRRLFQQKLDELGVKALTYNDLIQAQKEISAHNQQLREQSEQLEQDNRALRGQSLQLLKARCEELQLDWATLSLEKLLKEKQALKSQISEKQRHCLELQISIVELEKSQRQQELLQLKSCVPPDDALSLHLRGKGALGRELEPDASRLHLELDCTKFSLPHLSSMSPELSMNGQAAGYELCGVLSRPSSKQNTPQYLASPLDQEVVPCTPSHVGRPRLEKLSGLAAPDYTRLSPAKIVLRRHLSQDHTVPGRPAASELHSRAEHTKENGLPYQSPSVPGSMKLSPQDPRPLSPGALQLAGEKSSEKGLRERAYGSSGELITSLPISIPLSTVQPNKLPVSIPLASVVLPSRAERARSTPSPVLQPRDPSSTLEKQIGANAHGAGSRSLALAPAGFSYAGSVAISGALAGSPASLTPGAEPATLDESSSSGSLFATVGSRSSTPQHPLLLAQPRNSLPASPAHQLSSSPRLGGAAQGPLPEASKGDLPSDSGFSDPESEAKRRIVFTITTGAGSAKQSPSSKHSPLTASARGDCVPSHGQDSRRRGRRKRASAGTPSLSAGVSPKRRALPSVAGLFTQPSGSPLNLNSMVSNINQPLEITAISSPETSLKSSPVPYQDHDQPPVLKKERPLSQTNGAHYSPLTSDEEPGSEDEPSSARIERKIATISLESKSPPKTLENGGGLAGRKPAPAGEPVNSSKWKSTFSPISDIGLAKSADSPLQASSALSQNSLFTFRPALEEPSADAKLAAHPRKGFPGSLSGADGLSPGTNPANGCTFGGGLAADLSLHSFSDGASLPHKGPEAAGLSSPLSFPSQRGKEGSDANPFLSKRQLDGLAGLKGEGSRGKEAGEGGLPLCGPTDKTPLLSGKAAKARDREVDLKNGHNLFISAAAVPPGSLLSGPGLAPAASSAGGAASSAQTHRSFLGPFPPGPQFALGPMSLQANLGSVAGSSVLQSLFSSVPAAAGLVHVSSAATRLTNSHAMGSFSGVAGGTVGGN", "UniProt P35222": "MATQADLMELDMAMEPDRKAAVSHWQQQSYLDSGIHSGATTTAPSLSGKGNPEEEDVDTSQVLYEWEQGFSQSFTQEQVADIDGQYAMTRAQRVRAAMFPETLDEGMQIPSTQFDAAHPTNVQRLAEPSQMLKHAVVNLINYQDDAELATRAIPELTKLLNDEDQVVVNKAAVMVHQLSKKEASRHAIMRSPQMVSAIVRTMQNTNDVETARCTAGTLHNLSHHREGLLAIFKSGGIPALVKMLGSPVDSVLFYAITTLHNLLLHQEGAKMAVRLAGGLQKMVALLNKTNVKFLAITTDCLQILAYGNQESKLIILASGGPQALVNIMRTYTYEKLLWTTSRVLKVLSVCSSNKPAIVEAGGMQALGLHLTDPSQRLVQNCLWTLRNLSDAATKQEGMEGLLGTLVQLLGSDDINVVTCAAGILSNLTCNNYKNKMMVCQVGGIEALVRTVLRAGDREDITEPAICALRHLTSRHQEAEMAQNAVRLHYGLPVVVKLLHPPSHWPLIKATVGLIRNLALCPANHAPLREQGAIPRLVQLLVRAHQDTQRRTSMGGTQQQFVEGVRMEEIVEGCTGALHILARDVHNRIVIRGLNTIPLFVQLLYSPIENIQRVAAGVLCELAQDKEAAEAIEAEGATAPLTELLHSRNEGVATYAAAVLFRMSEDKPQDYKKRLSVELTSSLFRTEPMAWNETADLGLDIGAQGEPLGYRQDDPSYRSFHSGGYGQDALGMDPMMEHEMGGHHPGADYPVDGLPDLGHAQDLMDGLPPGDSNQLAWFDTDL", "UniProt Q924A0": "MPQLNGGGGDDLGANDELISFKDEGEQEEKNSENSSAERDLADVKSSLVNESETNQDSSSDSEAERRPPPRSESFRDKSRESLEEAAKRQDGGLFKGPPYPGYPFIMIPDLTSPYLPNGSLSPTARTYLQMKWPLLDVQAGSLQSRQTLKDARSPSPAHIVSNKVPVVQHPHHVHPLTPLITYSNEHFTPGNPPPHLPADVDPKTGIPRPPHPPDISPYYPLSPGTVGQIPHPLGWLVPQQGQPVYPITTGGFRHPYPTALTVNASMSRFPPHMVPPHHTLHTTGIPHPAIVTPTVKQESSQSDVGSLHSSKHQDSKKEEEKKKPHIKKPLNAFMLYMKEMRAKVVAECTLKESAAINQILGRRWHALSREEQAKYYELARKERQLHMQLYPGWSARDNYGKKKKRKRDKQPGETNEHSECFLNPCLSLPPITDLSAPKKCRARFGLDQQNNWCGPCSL", "UniProt Q02248": "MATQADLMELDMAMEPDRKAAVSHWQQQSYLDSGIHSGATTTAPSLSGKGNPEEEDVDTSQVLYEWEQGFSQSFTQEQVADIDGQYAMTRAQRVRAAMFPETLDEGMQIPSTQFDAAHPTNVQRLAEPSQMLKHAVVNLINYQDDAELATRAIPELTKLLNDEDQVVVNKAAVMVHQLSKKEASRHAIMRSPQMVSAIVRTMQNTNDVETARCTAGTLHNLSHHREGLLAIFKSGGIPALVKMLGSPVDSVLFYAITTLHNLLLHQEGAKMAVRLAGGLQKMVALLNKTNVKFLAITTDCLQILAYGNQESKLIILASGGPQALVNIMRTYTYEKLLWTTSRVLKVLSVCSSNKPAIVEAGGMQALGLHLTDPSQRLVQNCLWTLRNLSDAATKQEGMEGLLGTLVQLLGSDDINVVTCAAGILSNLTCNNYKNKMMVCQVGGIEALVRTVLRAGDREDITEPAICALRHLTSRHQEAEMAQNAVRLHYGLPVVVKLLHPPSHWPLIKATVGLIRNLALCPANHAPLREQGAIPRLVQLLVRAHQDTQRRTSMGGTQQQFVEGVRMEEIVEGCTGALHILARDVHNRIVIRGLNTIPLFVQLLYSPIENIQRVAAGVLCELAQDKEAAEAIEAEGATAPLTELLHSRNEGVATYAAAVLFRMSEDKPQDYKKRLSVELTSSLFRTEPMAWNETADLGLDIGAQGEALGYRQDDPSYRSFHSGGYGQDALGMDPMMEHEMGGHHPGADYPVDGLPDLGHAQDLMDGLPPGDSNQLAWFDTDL"}, "source": "paper PMC2982801", "molecules": {"B1": {"name": "MLLT10/AF10 (protein, UniProt P55197 1-1068)", "chain": "MVSSDRPVSLEDEVSHSMKEMIGGCCVCSDERGWAENPLVYCDGHGCSVAVHQACYGIVQVPTGPWFCRKCESQERAARVRCELCPHKDGALKRTDNGGWAHVVCALYIPEVQFANVSTMEPIVLQSVPHDRYNKTCYICDEQGRESKAATGACMTCNKHGCRQAFHVTCAQFAGLLCEEEGNGADNVQYCGYCKYHFSKLKKSKRGSNRSYDQSLSDSSSHSQDKHHEKEKKKYKEKDKHKQKHKKQPEPSPALVPSLTVTTEKTYTSTSNNSISGSLKRLEDTTARFTNANFQEVSAHTSSGKDVSETRGSEGKGKKSSAHSSGQRGRKPGGGRNPGTTVSAASPFPQGSFSGTPGSVKSSSGSSVQSPQDFLSFTDSDLRNDSYSHSQQSSATKDVHKGESGSQEGGVNSFSTLIGLPSTSAVTSQPKSFENSPGDLGNSSLPTAGYKRAQTSGIEEETVKEKKRKGNKQSKHGPGRPKGNKNQENVSHLSVSSASPTSSVASAAGSITSSSLQKSPTLLRNGSLQSLSVGSSPVGSEISMQYRHDGACPTTTFSELLNAIHNGIYNSNDVAVSFPNVVSGSGSSTPVSSSHLPQQSSGHLQQVGALSPSAVSSAAPAVATTQANTLSGSSLSQAPSHMYGNRSNSSMAALIAQSENNQTDQDLGDNSRNLVGRGSSPRGSLSPRSPVSSLQIRYDQPGNSSLENLPPVAASIEQLLERQWSEGQQFLLEQGTPSDILGMLKSLHQLQVENRRLEEQIKNLTAKKERLQLLNAQLSVPFPTITANPSPSHQIHTFSAQTAPTTDSLNSSKSPHIGNSFLPDNSLPVLNQDLTSSGQSTSSSSALSTPPPAGQSPAQQGSGVSGVQQVNGVTVGALASGMQPVTSTIPAVSAVGGIIGALPGNQLAINGIVGALNGVMQTPVTMSQNPTPLTHTTVPPNATHPMPATLTNSASGLGLLSDQQRQILIHQQQFQQLLNSQQLTPEQHQAFLYQLMQHHHQQHHQPELQQLQIPGPTQIPINNLLAGTQAPPLHTATTNPFLTIHGDNASQKVARLSDKTGPVAQEKS"}, "B2": {"name": "in vitro translated S35 labeled MLLT10 (protein, UniProt P55197 1-1068)", "chain": "MVSSDRPVSLEDEVSHSMKEMIGGCCVCSDERGWAENPLVYCDGHGCSVAVHQACYGIVQVPTGPWFCRKCESQERAARVRCELCPHKDGALKRTDNGGWAHVVCALYIPEVQFANVSTMEPIVLQSVPHDRYNKTCYICDEQGRESKAATGACMTCNKHGCRQAFHVTCAQFAGLLCEEEGNGADNVQYCGYCKYHFSKLKKSKRGSNRSYDQSLSDSSSHSQDKHHEKEKKKYKEKDKHKQKHKKQPEPSPALVPSLTVTTEKTYTSTSNNSISGSLKRLEDTTARFTNANFQEVSAHTSSGKDVSETRGSEGKGKKSSAHSSGQRGRKPGGGRNPGTTVSAASPFPQGSFSGTPGSVKSSSGSSVQSPQDFLSFTDSDLRNDSYSHSQQSSATKDVHKGESGSQEGGVNSFSTLIGLPSTSAVTSQPKSFENSPGDLGNSSLPTAGYKRAQTSGIEEETVKEKKRKGNKQSKHGPGRPKGNKNQENVSHLSVSSASPTSSVASAAGSITSSSLQKSPTLLRNGSLQSLSVGSSPVGSEISMQYRHDGACPTTTFSELLNAIHNGIYNSNDVAVSFPNVVSGSGSSTPVSSSHLPQQSSGHLQQVGALSPSAVSSAAPAVATTQANTLSGSSLSQAPSHMYGNRSNSSMAALIAQSENNQTDQDLGDNSRNLVGRGSSPRGSLSPRSPVSSLQIRYDQPGNSSLENLPPVAASIEQLLERQWSEGQQFLLEQGTPSDILGMLKSLHQLQVENRRLEEQIKNLTAKKERLQLLNAQLSVPFPTITANPSPSHQIHTFSAQTAPTTDSLNSSKSPHIGNSFLPDNSLPVLNQDLTSSGQSTSSSSALSTPPPAGQSPAQQGSGVSGVQQVNGVTVGALASGMQPVTSTIPAVSAVGGIIGALPGNQLAINGIVGALNGVMQTPVTMSQNPTPLTHTTVPPNATHPMPATLTNSASGLGLLSDQQRQILIHQQQFQQLLNSQQLTPEQHQAFLYQLMQHHHQQHHQPELQQLQIPGPTQIPINNLLAGTQAPPLHTATTNPFLTIHGDNASQKVARLSDKTGPVAQEKS", "modifications": "S35 labeled"}, "B3": {"name": "Mllt10/Af10 (protein, UniProt O54826 1-1068)", "chain": "MVSSDRPVSLEDEVSHSMKEMIGGCCVCSDERGWAENPLVYCDGHGCSVAVHQACYGIVQVPTGPWFCRKCESQERAARVRCELCPHKDGALKRTDNGGWAHVVCALYIPEVQFANVSTMEPIVLQSVPHDRYNKTCYICDEQGRESKAATGACMTCNKHGCRQAFHVTCAQFAGLLCEEEGNGADNVQYCGYCKYHFSKLKKSKRGSNRSYEQSLSDSSSHSQDKHHEKEKKKYKEKDKHKQKHKKQPEPSPALVPSLTVTTEKTYTSTSNNSISGSLKRLEDTAARFTNANFQEVSAHTSSGKDVSEARGSEGKGKKSSAHSSGQRGRKPGAGRNPGTAVSASSPFPQGSFSGTPGSVKSSSGSSVQSPQDFLSFTDSDLRSDSYTHTQQPSSTKDVHKGESGSQEAAVNSFSSLVGHPVTSTVISQPKSFDNSPGELGSSSLPTAGYKRAQTSGIEEEAVKEKKRKGNKQSKHGPGRPKGNKNQENVSHLSVSSASPTSSVASAAGSVTSSSLQKSPTLLRNGSLQSLSVGSSPVGSEISMQYRHDGACPTTTFSELLNAIHNGIYNSNDVAVSFPNVVSGSGSSTPVSSSHIPQQSSGHLQQVGALSPSAASSVTPAAATTQANTVSGSSLSQAPAHMYGSRLNQNPSMAVLIAQSESSQTDQDLGDNARSLGGRGSSPRGSLSPRSPVSNLQLRYDQPSNSSLETVPPVAASIEQLLERQWSEGQQFLLEQGTPGDILGMLKSLHQLQVENRRLEEQIKNLTAKKERLQLLNAQLSVPFPAITTNPSPSHQMHTYTAQTAPPPDSLNSSKSPHIGNSFLPDNSLPVLNQDLTSSGQSTSSSSALSTPPPAGQSPAQQSSGVSGVQQVNGVTVGALASGMQTVTSTIPAVSAVGGIIGALPGNQLAINGIVGALNGVIQTPVTISQNPAPLTHTSVPPNAAHPMPAAALTNSASGLGLLSDQQRQMFIQQQQFQQLLNSQQLTPEQHQAFLYQLMQQQHHPPELQQLQLPGPTQIPINNLLAGAQAPPLHTATTNPFLTIHGDSTSQKVTRLSDKTGPVAQEKS"}}, "key": {"[1]": {"target": "TCF4 (human (endogenous in Ls174T)) (UniProt Q9NQB0)", "assay": "co-IP; endogenous complexes from Ls174T CRC lysates in PLB buffer (1% TritonX-100, 2 mM EDTA, 1 mM DTT in PBS), overnight at 4°C with anti-TCF4, anti β-catenin, anti-Mllt10/Af10 or anti-DOT1L and protein G-Agarose; Western blot"}, "[2]": {"target": "DOT1L (human (endogenous in Ls174T)) (UniProt Q8TEK3)", "assay": "co-IP; endogenous complexes from Ls174T CRC lysates in PLB buffer (1% TritonX-100, 2 mM EDTA, 1 mM DTT in PBS), overnight at 4°C with anti-TCF4, anti β-catenin, anti-Mllt10/Af10 or anti-DOT1L and protein G-Agarose; Western blot"}, "[3]": {"target": "T1, Mllt10/Af10 (mouse (endogenous in small intestinal crypts)) (UniProt O54826)", "T1 sequence": "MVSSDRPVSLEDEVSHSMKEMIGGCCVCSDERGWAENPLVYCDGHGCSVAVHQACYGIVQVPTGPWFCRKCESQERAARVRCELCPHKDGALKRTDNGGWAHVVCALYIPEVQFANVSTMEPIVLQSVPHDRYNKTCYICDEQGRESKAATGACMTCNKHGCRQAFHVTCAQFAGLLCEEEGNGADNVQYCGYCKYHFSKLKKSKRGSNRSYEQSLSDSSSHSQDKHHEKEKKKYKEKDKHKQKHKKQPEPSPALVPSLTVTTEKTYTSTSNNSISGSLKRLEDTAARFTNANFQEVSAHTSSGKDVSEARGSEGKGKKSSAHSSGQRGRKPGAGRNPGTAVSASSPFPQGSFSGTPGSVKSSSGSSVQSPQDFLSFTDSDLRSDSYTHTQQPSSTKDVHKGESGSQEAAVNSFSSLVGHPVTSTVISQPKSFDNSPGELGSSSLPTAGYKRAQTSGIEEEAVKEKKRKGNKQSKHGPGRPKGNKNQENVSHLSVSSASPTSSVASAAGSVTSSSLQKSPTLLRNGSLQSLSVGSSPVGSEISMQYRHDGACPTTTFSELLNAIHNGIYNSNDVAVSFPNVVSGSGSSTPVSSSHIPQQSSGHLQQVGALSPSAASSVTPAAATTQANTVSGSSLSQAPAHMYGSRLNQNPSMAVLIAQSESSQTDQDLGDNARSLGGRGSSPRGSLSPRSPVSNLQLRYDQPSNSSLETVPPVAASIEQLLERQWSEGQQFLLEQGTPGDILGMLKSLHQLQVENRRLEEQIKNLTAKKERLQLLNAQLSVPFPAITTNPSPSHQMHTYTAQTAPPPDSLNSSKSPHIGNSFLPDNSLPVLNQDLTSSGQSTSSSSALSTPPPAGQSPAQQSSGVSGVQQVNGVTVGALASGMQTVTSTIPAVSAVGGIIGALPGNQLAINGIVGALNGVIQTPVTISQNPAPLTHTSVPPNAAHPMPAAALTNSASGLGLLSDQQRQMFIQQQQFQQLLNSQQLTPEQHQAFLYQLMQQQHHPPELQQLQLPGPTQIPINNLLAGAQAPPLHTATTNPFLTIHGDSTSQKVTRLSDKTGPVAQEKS", "assay": "co-IP; endogenous complexes from mouse crypt lysates in PLB buffer (1% TritonX-100, 2 mM EDTA, 1 mM DTT in PBS), overnight at 4°C with anti-TCF4, anti β-catenin or anti-Mllt10/Af10 and protein G-Agarose; Western blot"}, "[4]": {"target": "Recombinant GST-fused β-catenin (UniProt P35222)", "assay": "pull-down; GST pull-down: recombinant GST fusion proteins as bait, in vitro transcribed and translated S35 labeled proteins as prey; only the target purified"}, "[5]": {"target": "Tcf4 (mouse (endogenous in small intestinal crypts)) (UniProt Q924A0)", "assay": "co-IP; endogenous complexes from mouse crypt lysates in PLB buffer (1% TritonX-100, 2 mM EDTA, 1 mM DTT in PBS), overnight at 4°C with anti-TCF4, anti β-catenin or anti-Mllt10/Af10 and protein G-Agarose; Western blot"}, "[6]": {"target": "β-catenin (mouse (endogenous in small intestinal crypts)) (UniProt Q02248)", "assay": "co-IP; endogenous complexes from mouse crypt lysates in PLB buffer (1% TritonX-100, 2 mM EDTA, 1 mM DTT in PBS), overnight at 4°C with anti-TCF4, anti β-catenin or anti-Mllt10/Af10 and protein G-Agarose; Western blot"}}, "note": "These are yes or no findings as the source states them, for the method shown. Binding seen in cells or lysates may run through a third protein. Some entries that bind do so weakly or less than the wild type.", "data": [{"molecule": "DOT1L (from UniProt Q8TEK3 1-1537) (enzyme)", "values": [{"measurement": "binding", "setting": "[1]", "value": "binds"}]}, {"molecule": "TCF4 (from UniProt Q9NQB0 1-619)", "values": [{"measurement": "binding", "setting": "[2]", "value": "binds"}]}, {"molecule": "Tcf4 (from UniProt Q924A0 1-459)", "values": [{"measurement": "binding", "setting": "[3]", "value": "binds"}]}, {"molecule": "β-catenin (from UniProt Q02248 1-781)", "values": [{"measurement": "binding", "setting": "[3]", "value": "binds"}]}, {"molecule": "B1", "values": [{"measurement": "binding", "setting": "[2]", "value": "binds"}]}, {"molecule": "B2", "values": [{"measurement": "binding", "setting": "[4]", "value": "binds"}]}, {"molecule": "B3", "values": [{"measurement": "binding", "setting": "[5]", "value": "binds"}, {"measurement": "binding", "setting": "[6]", "value": "binds"}]}]}
